Laboratory results as given in article PMC10163288.
This is one part of the list.

B1: il10ra_site1_sap_21_mot_HHH_b2_02463_af2_000000222_0001_1_19_H_._HHH_eva_0321_0002_0000300010_0000002_0_0001 (protein)
chain: SSSSDEELEERVRELLEEAREVDAERAYKLLKEAIELAIENRDPELERLVMEVIREWLKRSSSSS
B2: il10ra_site1_normal_mot_e933875d0a4b1ebfe8e667f01481c16a_0001_1_af2_000000222_0001_49_63_H_._HHH_b2_03167_0001_0000100007_0000001_0 (protein)
chain: SSSSDETYRISREAIEEASELFERGNPEEAERVVEEALEEVRELNDPAAVFALENLLRAINSSSS
B3: il10ra_site1_sap_11_mot_05ca327611f5605f0dd8494b449afcbf_0001_1_000000248_0001_35_51_H_._HHH_b1_05848_af2_0001_0000100009_0000001_0_0001_af2pred_0001 (protein)
chain: SSSSSSSELERLLEEIEEALERGDPQEALRLSREAVRLAAELNDEEVLEKLLELVKKIFSSSSSS
B4: il10ra_site1_normal_mot_HHH_b2_03328_af2_000000127_0001_1_19_H_._HHH_b1_03010_0001_0000100001_0000002_0 (protein)
chain: SSSSTEELYRLSRKAAELLAEGDKEEAEKVVEEALELAEELNNPNFLFAIRLLLESIEELSSSSS
B5: il10ra_site1_normal_mot_HHH_b2_02757_000000230_0001_1_19_H_._HHH_b2_07153_0001_0000100007_0000002_1 (protein)
chain: SSSSSSDEEEVEELLEEARHIEDREERAELLLEALRIAYEAKNPELIQLVWEAIREIYGSSSSSS
B6: il10ra_site1_sap_19_mot_0f4c98a20d629a3dc592d0b946cdb135_0001_1_000000277_0001_1_13_H_._HHH_b1_01110_0001_0000200012_0000001_0_0001_af2pred_0001 (protein)
chain: SSSSSDAAEEALRLLREALELLANGDEEQAREVLEEAEELVKEAGNLILKISIELALRQLNSSSS
B7: il10ra_site1_normal_mot_HHH_b1_08508_000000230_0001_42_56_H_._382ff8651c9ca8077dbaa913212a5f00_0001_0001_0000900015_0000001_0 (protein)
chain: SVILISIRYALRAGNPEAAERAIEIALRSAKEQNDPRAEELLEEILELVRNGNPEEAERLLEEIE
B8: il10ra_site1_normal_mot_HHH_b1_03353_af2_000000170_0001_1_18_H_._HHH_b2_01529_0001_0000100002_0000001_0 (protein)
chain: SSSSSEAYEVARKAIEKARRLLEEGDDEEAERVLEEAIEIAEELGNFAAVFALEHLLRVLRSSSS
B9: il10ra_site1_sap_15_mot_HHH_b2_00800_af2_000000047_0001_1_20_H_._HHH_b2_08274_af2_0001_0000500036_0000002_0_0001_af2pred_0001 (protein)
chain: SSSSSSEEKREQVEELLEEAKHIPDPLERAFVLVRAYALANRVNDPELKKLVREVAIELSSSSSS
B10: il10ra_site1_sap_23_mot_HHH_b1_08009_000000194_0001_1_19_H_._HHH_b2_08195_0001_0000400011_0000001_0_0001 (protein)
chain: SSSSDADELFREVKRLLEEAAEIPDPEEARKLLEEALELAEEAGNRVLAMNLEYMLRVLRSSSSS
B11: il10ra_site1_sap_22_mot_HHH_b1_04638_000000131_0001_21_38_H_._HHH_b1_03122_0001_0000200033_0000001_0_0001 (protein)
chain: SSSSDEEEAALRFWERLLKQALELGNERVLKSALRAARWLAEHANDPEALEVIEELAERGSSSSS
B12: il10ra_site1_sap_10_mot_HHH_b1_05704_af2_000000048_0001_1_18_H_._HHH_b2_04382_0001_0000100002_0000001_0_0001_af2pred_0001 (protein)
chain: SSSSSEEEERVELALRFVKFLLKAGDPEAARFFVEWALEKAKELGNEELEEEAEELLREARSSSS
B13: il10ra_site1_normal_mot_HHH_b2_07144_000000289_0001_1_18_H_._HHH_b2_07034_0001_0000100011_0000002_1 (protein)
chain: SSSSDSEEIYRLSREAAELLREGNPEEAEEVLEEALRLAEEAGNFSILFNLEHLLRDIRGSSSSS
B14: il10ra_site1_sap_13_mot_HHH_b1_06881_000000249_0001_1_19_H_._1c3f67cdea6c6d4fbd4c31e186659400_0001_af2_0001_0000100004_0000001_0_0001 (protein)
chain: SSSSSDNEEALRLSVEAFRLALRGDPEEAREVLEEALELAERAGNERLAEIIEDLLRLLSSSSSS
B15: il10ra_site1_sap_22_mot_HHH_b2_00345_af2_000000013_0001_42_56_H_._3a0bc7445a4fb29c41f626ef8957750b_0001_0001_0000200007_0000001_1_0001 (protein)
chain: SSSSSEEHQEALRLSIRLMRALFRGDEEEAEKLLEKLEELAKEVGDPELELAVRAAKISLSSSSS
B16: il10ra_site1_normal_mot_HHH_b2_06795_000000133_0001_42_56_H_._HHH_b1_01903_0001_0000100008_0000001_0_af2pred_0001 (protein)
chain: SSSSDDDERLVRLAIKIAERLLEEGDPEAARFLVEAAKQIAEKLNNPELLELLEELLEEIRSSSS
B17: il10ra_site1_sap_12_mot_b26a303360aa2756ef5b79665ce52f45_0001_000000179_0001_1_11_H_._HHH_b2_03096_0001_0000100002_0000001_0_0001 (protein)
chain: SSSSSAQEEARELLEEAEELLRQGNPEEALKALQRAVRLAIRASDEELLQEIWRLVLEAASSSSS
B18: il10ra_site1_sap_20_mot_HHH_b1_05254_000000006_0001_1_19_H_._HHH_b1_07585_0001_0000200008_0000002_0_0001_af2pred_dldesign_0_af2pred (protein)
chain: SSSSSAAEEAAIDRAVAYAKWLSKYDPEAAKYILQTALEFAESIGHPRAKEIRELLKELESSSSS
B19: il10ra_site1_normal_mot_HHH_b1_05056_000000217_0001_1_20_H_._HHH_b2_03886_0001_0000900047_0000001_0 (protein)
chain: SSSSSDEEYEERVEELLERAEENPEHAQELLQRAVQVAFEAKDPELLRLIWRVVRELAKSSSSSS
B20: il10ra_site1_sap_19_mot_HHH_b2_01032_000000296_0001_1_18_H_._HHH_b2_05460_af2_0001_0000100004_0000002_0_0001 (protein)
chain: SSSSSRDLEQRARALLWFARLISDPEARRIALEEAEKVAEEAGDEELLKEIREELEEVGSSSSSS
B21: il10ra_site1_normal_mot_ems_3hM_3349_af2_000000045_0001_25_42_H_._266e3d37dc3f395c50bcd643833a3814_0001_0001_0000400019_0000001_0 (protein)
chain: PEEAEELARRFKEGDPEAEELVEELVAELLGIPPELVRKALELQEEQIGDPEQAVKALIAVALAN
B22: il10ra_site1_normal_mot_HHH_b1_03094_000000294_0001_1_20_H_._HHH_b2_05364_0001_0000100007_0000001_0 (protein)
chain: SSSSDEENQQALELSLEALRLALRGNPEEAKEVLEEALELAREAGNEQLVRTLEELLKALGSSSS
B23: il10ra_site1_normal_mot_HHH_b2_02116_af2_000000165_0001_41_55_H_._HHH_b1_06457_0001_0000100001_0000001_0 (protein)
chain: SSSDHERAVELLLRAAEIAFERGNPHQARAAIRLAREIAERINDEELEELVEEVERRLEESSSSS
B24: il10ra_site1_sap_24_mot_HHH_b2_07873_af2_000000172_0001_1_19_H_._HHH_b2_07020_0001_0000200011_0000002_0_0001 (protein)
chain: SSSSDLEEEIEELLKELEELIKEGDHERILHLIQRIEHLIFQASNAELLEILWELAKRHISSSSS
B25: il10ra_site1_normal_mot_HHH_b2_03425_000000200_0001_22_39_H_._HHH_b2_07864_af2_0001_0000400039_0000001_0 (protein)
chain: SSSSTEENEELYRLLRELIELVHEGDEEEFERLLEEVERLAKELNNFAIRFVVRLLERDLTSSSS
B26: il10ra_site1_normal_mot_HHH_b1_05860_000000142_0001_1_19_H_._HHH_b2_02987_af2_0001_0000200006_0000001_0_af2pred_dldesign_0_af2pred (protein)
chain: SSSSNPNEEIVELIREAAELLAEGKPEEARELLERARALAEAANNPILIATVDFLLKQVESSSSS
B27: il10ra_site1_normal_mot_HHH_b2_05686_000000041_0001_1_18_H_._HHH_b2_01846_0001_0000100018_0000001_0 (protein)
chain: SSSSTAEESLRFALRLAEERIELGNPEHARVVLELALRFAKESEDEELLEEVEKLLEELGSSSSS
B28: il10ra_site1_normal_mot_HHH_b1_03859_af2_000000004_0001_44_57_H_._HHH_b1_08440_0001_0000100002_0000002_0_af2pred_0001 (protein)
chain: SSSSSEVLKEAAQLYLEAAELLEEGDKEEVEKIIEELRELSEEYGDEIVKLILKDLEASLSSSSS
B29: il10ra_site1_sap_21_mot_HHH_b1_05254_000000006_0001_1_19_H_._74d410084df75ce7804895407938b8fc_0001_0001_0000400013_0000001_0_0001 (protein)
chain: SSSSTVMRISLRVLLELVRELEKEGDPERAEEVLEMAEEYAEQAGDEELLEEIRRLLEELRSSSS
B30: il10ra_site1_sap_18_mot_HHH_b2_01310_000000089_0001_41_55_H_._HHH_b1_07565_0001_0000100004_0000002_0_0001 (protein)
chain: SSSSSSDLEELLEELEQLLEEGDRERFLRVAQEILRLAFQLSDPEVLRAVWELVKKLASSSSSSS
B31: il10ra_site1_normal_mot_HHH_b2_03328_af2_000000127_0001_1_19_H_._HHH_b1_06423_0001_0000100002_0000001_0_af2pred_0001 (protein)
chain: SSSSSSSHTERIRELAEEALRIEDPEEAREVVEEAEELAEENNNLVALVNIRFLLELLSSSSSSS
B32: il10ra_site1_sap_22_mot_HHH_b1_04327_000000247_0001_1_20_H_._HHH_b2_00385_af2_0001_0000200012_0000001_0_0001 (protein)
chain: SSSSSDKREEALELAKEAFRLLLRGNPEEAREVLEEAEEVAKEAGNEHIKEMLRDLLRAASSSSS
B33: il10ra_site1_sap_40_mot_HHH_b1_00102_af2_000000216_0001_43_57_H_._HHH_b1_07360_0001_0000500039_0000002_0_0001_af2pred_0001 (protein)
chain: SSSSSDEEELEEEAKRLMEELEKHGDPELFTRLAELAKLLAELGNPLFEEVAELLARLQSSSSSS
B34: il10ra_site1_sap_10_mot_HHH_b1_06819_af2_000000053_0001_23_38_H_._69439ac408d0f939e9e32959957563f1_0001_0001_0000200021_0000001_0_0001 (protein)
chain: SSSSSEELERVFELARELAELLHEGDEERFKEVLEELERLVEELNNDVFRMIVEYLEKALSSSSS
B35: il10ra_site1_sap_11_mot_05ca327611f5605f0dd8494b449afcbf_0001_1_000000248_0001_35_51_H_._HHH_b2_04323_af2_0001_0000100001_0000001_0_0001_af2pred_0001 (protein)
chain: SSSSDEAHELARRAIELILRLLKEGNPEEAEEVYEEFKRLLEELGDESALLSLEFALERNSSSSS
B36: il10ra_site1_sap_22_mot_HHH_b2_05454_000000273_0001_1_18_H_._HHH_b1_05327_0001_0000200017_0000001_0_0001 (protein)
chain: SSSSSSEEELRERVEELLEEAEQITNWEEAIEVLLEALQLAIQGQDPELLQRVWEVVHRLSSSSS
B37: il10ra_site1_normal_mot_HHH_b1_00137_000000000_0001_1_19_H_._HHH_b2_06740_0001_0000300009_0000002_0 (protein)
chain: SSSDDQERTRFAAEVVVRLYDELGLSREQLQVLQELALKLVLEGFSEEEIREILEEVAKELSSSS

biological target: il10ra, Q13651; assay: yeast display titration

Apparent Kd, inactive:
B1 no binding seen
B2 no binding seen
B3 no binding seen
B4 no binding seen
B5 no binding seen
B6 no binding seen
B7 no binding seen
B8 > 826 nM
B9 no binding seen
B10 no binding seen
B11 no binding seen
B12 no binding seen
B13 no binding seen
B14 no binding seen
B15 no binding seen
B16 no binding seen
B17 no binding seen
B18 no binding seen
B19 no binding seen
B20 no binding seen
B21 no binding seen
B22 no binding seen
B23 no binding seen
B24 no binding seen
B25 no binding seen
B26 no binding seen
B27 no binding seen
B28 no binding seen
B29 no binding seen
B30 > 1080 nM
B31 no binding seen
B32 no binding seen
B33 no binding seen
B34 no binding seen
B35 no binding seen
B36 no binding seen
B37 no binding seen

2 neighbouring entries already listed, quoted:
Apparent Kd, inactive:
B14 no binding seen
B15 no binding seen
